Experimental findings from PubChem BioAssay AID2685 (National Center for Advancing Translational Sciences (NCATS), 2010) are described below.

The other results are listed elsewhere or left out. These are further read-outs of the screen, such as a control signal, another cell line or another target. No call is given for them. Most of these compounds were active or inconclusive in the main read-out, so they are no random draw. The note in brackets gives the kind of curve behind each potency; many fits are weak.

The assay can be described thus: qHTS Assay for Lipid Storage Modulators in Drosophila S3 Cells.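 For cell number change: cells counted by Cell Tracker Red CMTPX staining in the red channel.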 Particulars: BODIPY lipid droplet fluorescence, 18-24 h; for cell number change: measured here: cell count max response, cells fed with added oleic acid. In outline: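 Laser-scanning cytometry quantifies lipid droplet accumulation (500–530 nm total intensity; droplet/cell object ratio) in oleic acid-fed (400 uM added) Drosophila S3 cells treated with a concentration series. 20 uM Triacsin C defined 100% inhibition.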
(In general: qHTS replaces the single test concentration by a dilution series.)

[1] abbreviates: measured here: lipid fluorescence (Fed channel) AC50, cells fed with added oleic acid.
Setting [2] is: measured here: cell number channel AC50, cells fed with added oleic acid.

As usually defined, the AC50 is the concentration at which the activity in the assay is half-maximal.

Consider `Cn1c(CC(=O)Nc2ccccc2F)nnc1SCC(=O)N1CCOCC1`, for which the cell number change was 22.1%.
Turning to `CCOc1ccc(CCNC(=O)CCNC(=O)c2ccccc2Cl)cc1OCC`, the cell number change came out at 6.74%. For the same molecule, the concentration at half-maximal activity (AC50) under setting [1] was 7.31 µM [falling, partial curve].
In the case of `CS(=O)(=O)c1ccc(C(=O)OCc2nnc(-c3ccccc3)o2)cc1[N+](=O)[O-]`, the half-maximal activity concentration (AC50) under setting [2] is 0.00411 µM [rising, partial curve, poor fit] and the AC50 under setting [1] is 29.1 µM [falling, single point].
Take `COc1ccccc1NC(=O)c1ccc(NC(=O)CSc2nnnn2C)cc1`: the AC50 under setting [2] is 1.84 µM [rising, partial curve] and the AC50 under setting [1] was 1.84 µM [rising, partial curve].
As to `O=C1CC(C(=O)Nc2ccccc2C(=O)O)C(c2ccccc2)O1` (configuration not stated), the cell number change worked out at 80.8%. The AC50 under setting [2] is 25.9 µM [rising, partial curve].
As for `Cc1cc(NC(=O)c2ccc([N+](=O)[O-])cc2Cl)ccc1NC(=O)c1ccco1`, the cell number change was found to be 26.3%. In addition, the AC50 under setting [2] is 4.11 µM [rising, single point]. Also, the AC50 under setting [1] is 4.61 µM [rising, full curve, poor fit].
Regarding `COc1ccc(Cl)cc1NC(=O)C(C)N1CCN(c2ccccn2)CC1` (configuration not stated), the cell number change is 14.3%. Further, the half-maximal activity concentration (AC50) under setting [1] is 20.6 µM [rising, single point].
With `CCOC(=O)c1nnn(-c2nonc2N)c1CN(CC)CC`, the cell number change is 10.6%. In addition, the concentration at half-maximal activity (AC50) under setting [1] was 29.1 µM [falling, partial curve, poor fit].
For the molecule `Cc1cccc(C)c1N=C1C(=O)Nc2ccccc21`, the cell number change was -47%. The AC50 under setting [2] is 16.4 µM [falling, single point]. Besides, the AC50 under setting [1] was 18.4 µM [falling, single point].
As to `COc1ccc(OCCN2CCN(C(=O)c3ccc(OC(F)F)c(OC)c3)CC2)cc1`, the cell number change was 21.7%.
With `Cc1cc(/C=C2/NC(=O)N(Cc3ccccc3F)C2=O)c(C)n1C(C)C`, the half-maximal activity concentration (AC50) under setting [1] is 2.59 µM [rising, full curve].
Regarding `CC1CCN(C(=O)COC(=O)CSc2ccc(C(N)=O)cc2[N+](=O)[O-])CC1`, under setting [1], the AC50 is 0.13 µM [falling, full curve, poor fit].
For `CC(=O)N1N=C(c2ccc(C(C)(C)C)cc2)OC1(C)C`, the cell number change is -35.7%. For the same molecule, under setting [2], the AC50 is 20.6 µM [falling, single point]. Under setting [1], the AC50 is 16.4 µM [falling, partial curve].
Turning to `COCCn1c(C)cc(C2=NNC(=Nc3ccccc3F)SC2)c1C`, the cell number change was -2.02%.
Turning to `Cn1c(-c2ccc(F)cc2)cnc1SCC(=O)NNC(=O)Cc1ccccc1`, the cell number change was -12.4%. Also, under setting [1], the AC50 is 0.00411 µM [falling, full curve, poor fit].
`CCN(CC)S(=O)(=O)c1ccc2c(c1)c(=O)c(C(=O)N1CCOCC1)cn2C`: the cell number change is -6.41%. Also, the concentration at half-maximal activity (AC50) under setting [1] was 4.11 µM [falling, full curve, poor fit].
As to `CS/C(=N\S(=O)(=O)c1ccc(Cl)cc1)c1ccccc1`, the cell number change is -102%. Further, the AC50 under setting [2] was 18.4 µM [falling, partial curve, poor fit]. Moreover, the AC50 under setting [1] was 23.1 µM [falling, partial curve].
On to `O=S1OC(c2ccccc2)c2cc(Cl)ccc21` (configuration not stated), for which the cell number change was -20.5%. Moreover, the AC50 under setting [1] was 3.66 µM [rising, single point].
Consider `COC(=O)C(Cc1ccc(O)cc1)NC(=O)c1ccc2c(c1)OCCO2` (configuration not stated), for which the cell number change turned out to be 10.8%. For the same molecule, the AC50 under setting [1] is 6.51 µM [rising, partial curve, poor fit].
On to `Cc1cccc(NC(=O)CSc2nc(N)c(NC(=O)c3ccccc3F)c(=O)[nH]2)c1`, for which the cell number change was -11.9%. Besides, under setting [2], the half-maximal activity concentration (AC50) is 6.51 µM [falling, single point]. Moreover, under setting [1], the AC50 is 29.1 µM [falling, single point].
On to `O=C(Cc1cccc(C(F)(F)F)c1)NCC(=O)Nc1cc(Cl)ccc1Cl`, for which the cell number change amounted to 25.2%. For the same molecule, the AC50 under setting [1] is 0.58 µM [falling, single point].
Take `O=C(CCN1C(=O)/C(=C/c2ccccc2F)SC1=S)NCCCN1CCOCC1`: the cell number change stood at 8.11%. Further, the half-maximal activity concentration (AC50) under setting [1] is 0.103 µM [rising, full curve, poor fit].
With `CCNc1ccccc(C(=O)/C=C/c2ccc3c(c2)OCO3)c1=O`, the AC50 was 1.16 µM [rising, partial curve] under setting [2] and 0.58 µM [rising, single point] under setting [1].
As to `Cc1ccc(/C=N/NC(=O)c2ccncc2)cc1`, the cell number change is -4.21%.
`O=C(Cc1ccc(Cl)cc1Cl)OCC(=O)N1CCN(C(=O)c2ccco2)CC1`: the cell number change was found to be 15.4%. The AC50 under setting [2] is 0.00517 µM [falling, full curve, poor fit]. The AC50 under setting [1] was 0.326 µM [falling, full curve].
For the molecule `Nc1nc(SC2c3cccc4cccc(c34)C2NS(=O)(=O)c2ccccc2)n[nH]1` (configuration not stated), the cell number change was 32.8%. Also, the AC50 under setting [2] is 3.66 µM [rising, partial curve]. Besides, the AC50 under setting [1] is 2.31 µM [falling, single point].
Turning to `O=C(O)CNC(=O)c1ccc(OC(F)F)cc1`, the cell number change is -19.1%. The AC50 under setting [1] is 8.2 µM [falling, partial curve, poor fit].
For `Cc1cccc(OCC(=O)Nc2ccc3oc(=O)ccc3c2)c1C`, the cell number change came out at 2.25%. Also, the AC50 under setting [1] was 6.51 µM [falling, single point].
In the case of `C/C(=N/NC(=O)c1sc(NS(=O)(=O)c2ccc(C)cc2)nc1C)c1sc(N)nc1C`, the cell number change was 49.5%. Moreover, the half-maximal activity concentration (AC50) under setting [2] was 29.1 µM [rising, single point]. Under setting [1], the concentration at half-maximal activity (AC50) was 16.4 µM [rising, single point].
Turning to `Cc1c(N=Cc2ccc(-c3ccc(Cl)cc3)o2)c(=O)n(-c2ccccc2)n1C`, the cell number change was -13.2%.
For the molecule `Cc1ccc(NC(=O)c2nc(S(=O)(=O)Cc3ccccc3)ncc2Cl)cc1`, the concentration at half-maximal activity (AC50) under setting [2] is 0.13 µM [falling, full curve, poor fit] and the AC50 under setting [1] was 6.51 µM [falling, partial curve].
As to `COCCCN(C(=O)c1cc2c(s1)CCCCC2)c1c(N)n(Cc2ccccc2)c(=O)[nH]c1=O`, the cell number change was -39.7%. The AC50 under setting [2] is 29.1 µM [falling, single point].
As to `Cn1c(=O)c2c(nc(SCC(=O)N3CCc4ccccc43)n2Cc2ccccc2)n(C)c1=O`, the cell number change is 11.1%. Also, under setting [1], the AC50 was 2.06 µM [rising, partial curve].
Take `FC(F)(F)c1ccc2c(c1)C1C=CCC1C(c1ccncc1)N2` (configuration not stated): the cell number change was -62.1%. Moreover, under setting [2], the AC50 is 6.51 µM [falling, partial curve, poor fit]. Moreover, under setting [1], the AC50 was 1.03 µM [falling, full curve].
Consider `CCN(CC)CCOCCOc1ccc(Cl)c2ccccc12`, for which the cell number change was -7.73%. Also, the AC50 under setting [1] was 2.91 µM [rising, single point].
